According to patent US6555062B1, “Reagent container for an automated analyzer” (Bayer Corporation, priority 1991, dated 2003):

System: monoclonal anti-digoxin antibody
Assay: Digoxin chemiluminescent immunoassay, specificity (cross-reactivity, effect on dose)
Assay type: binding
Details: level tested 20 ug/mL (cortisone, prednisone) or 1 ug/mL (estradiol, progesterone, testosterone)
Protocol: A digoxin assay has been developed for the above described automated analyzer. The digoxin assay architecture is a hapten solid phase with a labeled antibody (tracer reagent). In the preferred format of this assay, the tracer reagent is an acridinium ester labeled monoclonal anti-digoxin antibody; and the solid phase is paramagnetic particles to which digoxin-apoferritin has been immobilized. A test sample (150 uL.) and tracer reagent (50 uL.) are dispensed into a cuvette by the analyzer and incubated for 2.5 minutes at 37° C. The solid phase reagent (250 uL.) is then added to the cuvette followed by an additional incubation of 5.0 minutes. After the second incubation, magnetic separation and washes are performed as described above prior to detection of the chemiluminescent signal.
All data presented was generated based upon a two-point recalibration off an original master curve. The master curve was generated using eight standards with values ranging from zero to 6 ng/mL digoxin.
The test assay has a sensitivity of less than 0.1 ng/mL (minimum detectable dose defined as the 95% confidence limit at 0 ng/mL.) with a range of 0-5 ng/mL. The correlation of the automated test assay with a manual test assay (Magic^R Digoxin, Ciba Corning Diagnostics, Corp.) provided a slope of 1.00, an intercept of 0.08 and a correlation coefficient of 0.97 (N=130).

SMILES | Effect on Dose
C[C@]12CC[C@H]3[C@@H](CCC4=CC(=O)CC[C@@]43C)[C@@H]1CC[C@@H]2O [Testosterone] | N.S.
C[C@]12C=CC(=O)C=C1CC[C@@H]1[C@@H]2C(=O)C[C@@]2(C)[C@H]1CC[C@]2(O)C(=O)CO [Prednisone] | N.S.
C[C@]12CCC(=O)C=C1CC[C@@H]1[C@@H]2C(=O)C[C@@]2(C)[C@H]1CC[C@]2(O)C(=O)CO [Cortisone] | N.S.
CC(=O)[C@H]1CC[C@H]2[C@@H]3CCC4=CC(=O)CC[C@]4(C)[C@H]3CC[C@]12C [Progesterone] | N.S.
